Drawing on publication PMC10405847, this text covers binding for four substances.

Sequences of proteins named here, by UniProt entry; tags and fusion partners are left off. A change or cut given only in a name is not applied to a line headed by its entry.
UniProt Q60843: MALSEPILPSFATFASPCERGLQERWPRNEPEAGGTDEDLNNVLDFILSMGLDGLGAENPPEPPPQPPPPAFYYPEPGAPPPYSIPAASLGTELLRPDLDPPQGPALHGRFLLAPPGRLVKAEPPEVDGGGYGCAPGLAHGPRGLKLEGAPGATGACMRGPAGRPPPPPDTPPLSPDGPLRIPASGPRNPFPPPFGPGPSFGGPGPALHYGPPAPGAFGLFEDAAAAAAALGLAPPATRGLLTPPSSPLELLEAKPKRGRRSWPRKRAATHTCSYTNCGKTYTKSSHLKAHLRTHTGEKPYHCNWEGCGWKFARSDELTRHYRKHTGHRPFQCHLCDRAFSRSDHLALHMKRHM
UniProt Q9EPK5: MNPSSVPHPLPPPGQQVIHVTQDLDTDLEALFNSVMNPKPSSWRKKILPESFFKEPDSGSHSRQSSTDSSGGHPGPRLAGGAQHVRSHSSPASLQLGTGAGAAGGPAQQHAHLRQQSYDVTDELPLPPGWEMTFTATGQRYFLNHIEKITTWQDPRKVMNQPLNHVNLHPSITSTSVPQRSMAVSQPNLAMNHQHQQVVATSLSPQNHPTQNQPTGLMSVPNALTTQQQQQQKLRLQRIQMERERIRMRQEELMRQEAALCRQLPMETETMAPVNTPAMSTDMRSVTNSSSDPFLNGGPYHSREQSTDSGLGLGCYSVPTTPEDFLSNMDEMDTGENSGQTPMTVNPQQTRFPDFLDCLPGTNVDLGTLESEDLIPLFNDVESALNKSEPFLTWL

No constants are given. Whether binding was seen depends on the method and setting. Binding seen in cells or lysates may run through a third protein. Some binding calls cover weakened binding; strength is not graded here.

The target in one assay is Myc-tagged KLF2 (UniProt Q60843). The assay is described as follows: co-IP; HEK293T transfected with wild-type or deletion mutants of TAZ and Myc-tagged KLF2; immunoprecipitation with Myc-tag antibodies, immunoblot. In general terms: A western blot detects proteins with antibodies after separation by electrophoresis.
The target in assay [1] is Transcriptional co-activator with PDZ-binding motif (TAZ), endogenous in mouse liver sinusoidal endothelial cells (mouse (endogenous in LSECs)) (UniProt Q9EPK5). The assay is described as follows: co-IP; isolated mouse LSECs immunoprecipitated with anti-TAZ antibodies, KLF2 found by immunoblot; IgG as immunoprecipitation control.
Assay [2] deals with FLAG-tagged TAZ (wild type) (UniProt Q9EPK5). The assay is described as follows: co-IP; HEK293T transfected with FLAG-tagged TAZ and Myc-tagged KLF2; lysis in RIPA buffer, anti-FLAG antibody at 4 °C overnight, protein G beads, immunoblot.

As for “FLAG-tagged TAZ (wild type) (from UniProt Q9EPK5 1-395)”, the binding entry in the assay with Myc-tagged KLF2 is given as “binds”.
For the substance “Krüppel-like factor 2 (KLF2), endogenous in mouse liver sinusoidal endothelial cells (from UniProt Q60843 1-354)”, the binding result in assay [1] was “binds”.
Turning to “Myc-tagged KLF2 (from UniProt Q60843 1-354)”, in assay [2], the binding entry is given as “binds”.
As to “TAZ164-395 (from UniProt Q9EPK5 164-395) (domain or fragment)”, in the assay with Myc-tagged KLF2, the binding entry is listed as “no binding”.
